Results from PubChem BioAssay AID720589 (Broad Institute, 2013).
This list was built around the results that the source calls inconclusive (neither active nor inactive); the mix of calls is not that of the screen. The source made the active and inactive calls.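 How the source made its calls: active means fitted curve drops below -35% activity at a concentration within twice the top valid tested dose; inconclusive means no clear call, values can overlap the other calls; inactive means signal rising instead of falling, among other cases.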

assay: HepG2 hepatoma cell cytotoxicity, dose response, cytotoxicity control, CellTiter-Glo luminescence, cherry-pick, set 3 (AID 720589); conditions: HepG2 viability, ATP luminescence (CellTiter-Glo), 72 h, stronger effect = lower value, 0% = untreated, negative = ATP loss; at 2.85 µM unless noted

Row | SMILES | max activity
1 | COC(=O)C[C@@H]1CC[C@@H]2[C@@H](COc3ccc(NC(=O)Cc4cccs4)cc3C(=O)N2C)O1 | inactive: -25%
2 | c1ccc(-c2ccc([C@H]3[C@H]4CNC[C@@H]3N4Cc3cc(-c4ccccc4)on3)cc2)cc1 | inconclusive: -44.2% [at 0.035 µM]
3 | COc1cc(-c2noc(C)c2C#Cc2nccn2C)cc(OC)c1OC | inconclusive: -46.9% [at 0.3 µM]
4 | CCCc1nc2ccc(NC(=O)c3cccs3)cc2c(=O)n1Cc1ccccc1Cl | inactive: -32.5%
5 | COc1ccc(/C=C2\SC(=S)N(CCCC(=O)NC3CCCC3)C2=O)cc1OC | inconclusive: -41.8% [at 0.011 µM]
6 | COc1ccc(-c2ccc3c(c2)[C@H]2[C@H](CCN2S(=O)(=O)c2ccc(OC)cc2)[C@@H](CO)N3C)cc1 | inactive: -27% [at 26 µM]
7 | CCCN1C(=O)/C(=C/c2nc3ccccc3c(=O)[nH]2)c2ccccc21 | inconclusive: -51.7% [at 8 µM]
8 | COc1ccc(/C=C2\SC(=S)N(CCCC(=O)Nc3ccc(O)cc3)C2=O)cc1 | inconclusive: -42.3%
9 | COc1cccc(-c2cccc(-c3nc(C(=O)NCC(F)(F)F)cc4c3[C@H](CCO)N([S@@](=O)C(C)(C)C)C4)c2)c1 | inconclusive: -55.5% [at 0.9 µM]
10 | COc1ccc(-c2sc3ccccc3c2-c2ccc(OCCN3CCCCC3)cc2)cc1 | inactive: -22.5% [at 26 µM]
11 | C[C@H](CO)N1C[C@H](C)[C@H](CN(C)Cc2ccc(Oc3ccccc3)cc2)Oc2ccc(NC(=O)CCCCCC(=O)Nc3ccccc3N)cc2CC1=O | inconclusive: -52% [at 8 µM]
12 | O=C(c1cccc(S(=O)(=O)NCc2ccccc2)c1)N1CCN(c2ccccc2)CC1 | inconclusive: -50.1% [at 0.011 µM]
13 | Cc1nc2cc(-c3ccc(Cl)cc3)nn2c(C)c1CCC(=O)NC(C)c1ccc2c(c1)OCCO2 (stereo not drawn) | inconclusive: -55.5% [at 0.1 µM]

3 compounds out of the list, ordered by length of the SMILES, low to high.
Row | SMILES | max activity
7 | CCCN1C(=O)/C(=C/c2nc3ccccc3c(=O)[nH]2)c2ccccc21 | inconclusive: -51.7% [at 8 µM]
5 | COc1ccc(/C=C2\SC(=S)N(CCCC(=O)NC3CCCC3)C2=O)cc1OC | inconclusive: -41.8% [at 0.011 µM]
11 | C[C@H](CO)N1C[C@H](C)[C@H](CN(C)Cc2ccc(Oc3ccccc3)cc2)Oc2ccc(NC(=O)CCCCCC(=O)Nc3ccccc3N)cc2CC1=O | inconclusive: -52% [at 8 µM]
